According to patent US5208243A, “5-isoquinolinesulfonamides” (Adir et Compagnie, priority 1991, dated 1993):
The name of at least one read-out is uncertain.

Tested on: isolated heart
Test: Isolated heart subjected to hypoxia-reoxygenation
Parameters: species or system WISTAR rat
Details: 60 min hypoxia, 30 min reoxygenation
Method: The heart is removed from WISTAR rats (325-375 g). The heart is rapidly perfused according to the technique of LANGENDORFF at a constant pressure of 101.310^2 Pa and electrically stimulated at 5 Hz. Isovolumetric contractions are recorded by means of a polyethylene ballonet linked to a pressure sensor (P23-GOULD) introduced into the left ventricle and inflated so as to obtain a diastolic pressure of between 6.710^2 and 13.310^2 Pa. c) Protective effect of the compounds of the invention on an isolated heart subjected to hypoxia-reoxygenation. An experimental procedure similar to that described in the preceding test is followed, the ischemia-reperfusion stage being replaced by a 60 min hypoxia produced by the administration of a 95% N2 +5% CO2 gaseous mixture during this period and followed by a 30 min reoxygenation. The test compounds are incubated for 15 min before and during the period of hypoxia.

CN(CC1CCN(CCCOc2ccc(F)cc2)CC1)S(=O)(=O)c1cccc2cnccc12.Cl.Cl [Example 17, N-Methyl-N-{[1-[3-(p-fluorophenoxy)propyl]-4-piperidyl]methyl}-5-isoquinolinesulfonamide dihydrochloride]
reduction of the contracture developed during control experiments: 42%
